Experimental data reported in publication PMC6293628.
Results are given in words; binding and its absence hold for the method and conditions named. In cells and extracts the contact can be indirect. A yes stands for co-enrichment or nearness to the bait. Other partners may have been found.

Molecular target: T1, Rho GTPase-activating protein 11A (ARHGAP11A) (human (endogenous in Hep3B)) (UniProt Q6P4F7)
T1 sequence: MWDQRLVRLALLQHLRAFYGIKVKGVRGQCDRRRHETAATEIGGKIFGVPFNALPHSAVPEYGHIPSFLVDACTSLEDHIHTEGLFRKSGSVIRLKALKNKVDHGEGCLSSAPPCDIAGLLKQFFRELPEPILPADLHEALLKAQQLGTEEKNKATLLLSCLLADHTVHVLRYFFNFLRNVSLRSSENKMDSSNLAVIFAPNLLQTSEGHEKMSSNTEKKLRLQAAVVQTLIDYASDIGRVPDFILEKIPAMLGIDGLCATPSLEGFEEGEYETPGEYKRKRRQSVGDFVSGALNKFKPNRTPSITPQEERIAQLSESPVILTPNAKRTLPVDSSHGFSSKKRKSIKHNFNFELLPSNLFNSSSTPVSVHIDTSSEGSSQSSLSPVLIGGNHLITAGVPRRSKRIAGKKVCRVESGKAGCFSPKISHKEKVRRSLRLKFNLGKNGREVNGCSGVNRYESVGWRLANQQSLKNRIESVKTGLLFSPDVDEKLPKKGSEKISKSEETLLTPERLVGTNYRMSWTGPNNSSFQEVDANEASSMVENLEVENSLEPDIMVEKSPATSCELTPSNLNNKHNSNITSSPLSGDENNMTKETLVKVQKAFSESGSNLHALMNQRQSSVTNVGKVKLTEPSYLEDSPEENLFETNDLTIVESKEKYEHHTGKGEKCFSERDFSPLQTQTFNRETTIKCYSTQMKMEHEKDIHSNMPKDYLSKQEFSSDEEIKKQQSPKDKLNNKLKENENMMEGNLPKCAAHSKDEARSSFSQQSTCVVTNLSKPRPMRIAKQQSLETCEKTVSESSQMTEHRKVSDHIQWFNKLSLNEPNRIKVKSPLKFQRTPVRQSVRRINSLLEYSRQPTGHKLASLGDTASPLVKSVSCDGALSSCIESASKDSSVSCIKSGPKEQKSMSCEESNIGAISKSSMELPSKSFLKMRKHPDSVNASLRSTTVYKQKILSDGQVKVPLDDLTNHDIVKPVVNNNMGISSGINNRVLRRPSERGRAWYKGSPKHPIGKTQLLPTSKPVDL
Assay: affinity purification with mass spectrometry; co-IP with anti-ARHGAP11A antibody-conjugated beads from HCC cell lysate, then LC-MS/MS (nanoLC, TripleTOF 5600+)

B1: HAUS6 (Q7Z4H7) (protein, UniProt Q7Z4H7 1-955)
chain: MSSASVTAFEKEHLWMYLQALGFEPGPATIACGKIVSHTHLGVNMFDKLNRDAFHIISYFLFQVLDQSLTKEVFKFCWPPFDQKSDTEFRKHCCEWIKRISGECGSSFPQVVGSLFLSPGGPKFIHLMYHFARFVAMKYIKSNSKNSSHHFVETFNIKPQDLHKCIARCHFARSRFLQILQRQDCVTQKYQENAQLSVKQVRNLRSECIGLENQIKKMEPYDDHSNMEEKIQKVRSLWASVNETLMFLEKEREVVSSVLSLVNQYALDGTNVAINIPRLLLDKIEKQMFQLHIGNVYEAGKLNLLTVIQLLNEVLKVMKYERCQADQARLTVDLHYLEKETKFQKERLSDLKHMRYRIKDDLTTIRHSVVEKQGEWHKKWKEFLGLSPFSLIKGWTPSVDLLPPMSPLSFDPASEEVYAKSILCQYPASLPDAHKQHNQENGCRGDSDTLGALHDLANSPASFLSQSVSSSDRNSVTVLEKDTKMGTPKEKNEAISKKIPEFEVENSPLSDVAKNTESSAFGGSLPAKKSDPFQKEQDHLVEEVARAVLSDSPQLSEGKEIKLEELIDSLGSNPFLTRNQIPRTPENLITEIRSSWRKAIEMEENRTKEPIQMDAEHREVLPESLPVLHNQREFSMADFLLETTVSDFGQSHLTEEKVISDCECVPQKHVLTSHIDEPPTQNQSDLLNKKVICKQDLECLAFTKLSETSRMETFSPAVGNRIDVMGGSEEEFMKILDHLEVSCNKPSTNKTMLWNSFQISSGISSKSFKDNDFGILHETLPEEVGHLSFNSSSSSEANFKLEPNSPMHGGTLLEDVVGGRQTTPESDFNLQALRSRYEALKKSLSKKREESYLSNSQTPERHKPELSPTPQNVQTDDTLNFLDTCDLHTEHIKPSLRTSIGERKRSLSPLIKFSPVEQRLRTTIACSLGELPNLKEEDILNKSLDAKEPPSDLTR
modifications: ubiquitination peptide SLSKKR identified (site not stated)
- binding: binds
